Measurements reported in publication PMC11651612.
No constants are given. Whether binding was seen depends on the method and setting. In cells and extracts the contact can be indirect. Here binding means that the protein was enriched with, or labelled near, the bait; the list need not be complete.

T1: Cdc3-mCherry (C. neoformans) (UniProt J9VUF2)
T1 sequence: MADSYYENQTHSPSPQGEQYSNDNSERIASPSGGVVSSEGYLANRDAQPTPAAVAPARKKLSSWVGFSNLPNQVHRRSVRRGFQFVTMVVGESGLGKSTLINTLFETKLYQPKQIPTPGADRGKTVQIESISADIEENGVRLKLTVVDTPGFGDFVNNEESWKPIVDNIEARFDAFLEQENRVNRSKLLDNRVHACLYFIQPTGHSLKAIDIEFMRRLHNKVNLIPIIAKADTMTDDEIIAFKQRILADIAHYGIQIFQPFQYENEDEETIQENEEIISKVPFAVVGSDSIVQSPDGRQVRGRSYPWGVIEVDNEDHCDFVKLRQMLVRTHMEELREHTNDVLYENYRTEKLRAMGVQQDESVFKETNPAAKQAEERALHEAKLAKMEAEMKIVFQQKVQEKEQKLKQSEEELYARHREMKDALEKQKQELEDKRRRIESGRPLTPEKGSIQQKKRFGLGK

B1: Transcription elongation factor SPT5 (protein, UniProt J9VJH9 1-1151)
chain: MSDIEVKSSPPESPVQEQEETRLAGRKRARVMDPDEEDDDTQVVNNQDEEKDAKEEDDEEGGNGQAEGADEGEDDEDDDEDDDDDEDDEDEDDDGERRAKRRRKQKRFRFLDVEAEVDDEDEEEDEDNDYGDVAEFIDEAPEDVGARDDHQHRRLNRVFGRNEEEDVHDIVQRLKERHAGAARYNGDSDAVPQRLLMPGVNDPSLWKVVVKSGREHAICASIFRKVFAQQYSANPIDVISVFCRDSIPGMIFIEARQSASVSAAVNGIVGIFMSKGVNLVPIEEMAPLLKMKKKDVNLTPGMWVRMKRGKHAGDLAQVVDVDQITSGVVGIKFIPRIDLTPREKRKERIAIGKPGGVRPPARLFAYDDVRKIYGRQSVRQGAQGSYLFDNDEYVDGFCIKDVKIPAVATEDVNPTLEEISRFTGDDDSTAKFDLSAIADANKNLSTSLLFPGDKIEVYEGEQTGLYGIVEAVSPDVIAIKAEGGEVHGQTVEVPARSVRKRFDVGEHVKVLGGKHTDASGMVVEVKGDIVTLMSDLGEQEIKVFSKDLRKAADTTNLTATKGLYDVHDMVMLDSTTAGLVTKVEGGLLRILDQNGAAKSVSPEQVSIRRDNKRFAVATDSQGNDMKVGDNMKETDGEMRQGEVINIFRSIFVFLYNREYTDNFGVFVARANSLISVTPKSAVNDLTKINPALNQQLPYGGASLMPAPTANLNRNRLINTLVVVTKGTSKGLIGVIKDVQGENARVELKHNNKTLSVNLASLKRKDQKTGATFPLETAGIASAAGGYGTRPNAGQYDINPYGGATAMHPSMGGQTPALMGGRTPAVRFGQTPNPYAAGVQNGKTPNPYATGVGGKTPSAAYASGGKTPAWGASGGKTPAYGMASGGKTPAYGIQGGKTPNAYAMGPPGPSGGRTPAYGTYGRPEASGSRPSAMPPPPAPYSAPYSEPTPAGNGAPTPAAPGNAYTAPTPYGAPTPYIAPTPGMPSLSAPTPGPGGGIAPTPFGAPTPYGVQSYGASALQQRGLPWDWALDFRNVIVEIGPSYRPGSRNPLHFKRGFFDGKRFGYNDIIGESVRAILLDDSSVVEEIPAEYLRPAKADSQGQVVVVIGGGPEQKGQQRTTQYENGGSWMMELEGGDMAPLVVDGADLCRIWKV
B2: Ribosome assembly factor mrt4 (protein, UniProt J9VIQ4 1-245)
chain: MPKSKRSRLTTLSKTPIRSTKASKQALVNEIRENVDKYDYCWMFSVGDMRNDGLKEVRAQWRGTGRFFFGKGKVMAKALGDTPETEYQDGLSQIAKRLKGQIGLFFTSHPVDETVEWFDSWHKPEYARMGAKSTMDITLPAGPLLTPFTEPPSGDPFPHSMEPQLRALGLTTSLVRGIPSLNNPHVLCVKGEKLTSEKCRILKLLAIQMADFRIHLGSRWSKESGFVEGKELDEGSEKEDEMEED
B3: Fumarate reductase (protein, UniProt J9VYC0 1-637)
chain: MSKVKVIIVGGGLSGLSAAHTVLERGGNVLLLDKNSFMGGNSTKATSGINGANTQAQQALGIPDTSAKFFADTKKSARELARDDLIRVLTYKSGDAVNWLIERFNLDLSKVSRLGGHSEKRTHRGTQQFPGMTITYALMEKLEDMAEQHPDRVKILKKAKVTKLLQENGKVIGVDYEREGKHYTEYGPVVLATGGYAADFTADSLLKQHRPEYYNLPTTNGDHCTGDGHKMAMLIGAKGIDLEKVQVHPTGLVDPKDPDAKVKFLAAEALRGVGGLLINRDGERFVDELEHRDYVTGKMWENDKFPVRLVLNSTSSKEIEWHCKHYVGRGLMKKFNSGEELAKEIGCSPEALKKTFDDHNRYAKNPGTDPFGKKFFSGGDFSMSDTYHAAIMTPVLHYTMGGLEIGINAAVHNANGGEVEGLYACGELAGGVHGANRLGGSSLLGCVVFGRVAGDSVSSYLLSSLANADANVKAAKRLGTINNHLVETKIKLDPESKALQVSFSWGDKTGDQSQKDAGGAQVPANSAPGQKGDRTAAEIEPEALPTPPAKKGSEKGTSDKKEYTLEEVAKHNTEKDCWVVIGGQVLDVTNFLEDHPGGVKAIMLYAGRDATEEFDMIHPPNAIAKYAPDTVIGTIKQ
B4: Replication factor C subunit 2/4 (protein, UniProt J9VWI5 1-363)
chain: MSAFAPRQAAPIKDPKLQPWVEKYRPKTIDDVSSQDNTVAVLRKALASTNLPHMLFYGPPGTGKTSTILALARQLFGPDLFRARVLELNASDERGISVVREKIKSFARETPRHAPGISSDGKEYPCPPFKLIILDEADSMTQDAQSALRRIMETYSKITRFCLVCNYVTRIIEPLASRCSKFRFKPLEQGSTRARMEMIAENEGVQTDPGVISLILELAGGDLRKAITYLQTAQRLHSSIEPPTPVSALSIHEISGVVPEDLITDLLAAMGVDRQIGIDRSLARGFDGVMVAVKRVEREGWSVGQVLEQIHDALIPIPSIPAVQKSLAGIAIAECDKGLCEGGDEELQLLDCMLRIKDIMGRL
B5: Glutathione transferase (protein, UniProt J9VLS0 1-249)
chain: MPHQIILHHLNNSRSDRIFWTLEELNLPYDVQVHFRLPTRSAPPSLHKVSPLGRAPALILDGRLLTESAYIIHTLLSLPEVQQAAQKGEIDVQVENTNDDVFWSHFAEASMMNLLQGMATVGATSQGWLSGKVPGLPELSEDEKKGIQKYSSWVQDGYFRPNIQSPIDFAENFLAKQDAPFFSGTSKPGEGDFMMFFAINSLLGGSRADMGFKVGPNLKKWYDIVLSRPAGKKALERLKQEEESAKAKI
B6: Vigilin 1 (protein, UniProt J9VS18 1-1289)
chain: MAFSAADLQKQHQELEGAPDPFPALAHAPVPVAKKVQSAPAPLDTSSEDAFPSLAAPSAPSSKGNVKPAISMWASKSSAVKTGVAKPMAPGGLGRTGTPTAGSHPFAETFSIPANELVQGKAASDVVKKVQDQTGAIVESSTQMRTGLKTFHVKAADQKKLAQAKRMIEGGLRKPVTVQVEVPITTLGTIIGPKGATLKGITDATGAKVDVPRRETLPSYTPKDNGSDAGSDDEDGEPQVSITISGPATGCTDAKDRILSLISHKMSQTSTSIKTIPSAFYTIISTQVSELEQGPGEGKVTVKVPIPAVWKALERQAQADAEGEKVVVDGEAPIKVKGDRENVKAVIDEITKSYDSLVQSFNLKKVSIPKRQHRFLIGSAAEDILAQTGCVVELPPVDDPSDRVVIRGPPAKLVAAQSLVFEKANAVSVEPLDLVSVFRRTTSDPVTHATNILRYLRASKLKDVSSAYPNVQIFPPFPSTVANTGTVIIEIVSEDGEEVSKVVDEITNLAKGILPSAVSIVQVDHLAHSLLVGKKGTRIAQFEKTHNVTVVFPPASEESSNVLLVYTGPADKDVKLEEVFEGASKDLTELAKEVADIKTEILEVEKKWHKYIIGQNGSVLNAIIGEDALVSVKVGTSTTKFPSTGSEDSVTIRGPRNEVDRVTKQIKQVVEDAKNDDIVNGYTVKFDVEKKYVPHLVGQAGAAINKLRETLGVKVNFEDAPEKETKKGAKKVLVNCSIVGRKEPVEEAKKRLIAQIEKLEDETTEVLSIKRAIQPALIGAGGKYAIRLEEKYGVKLSFPRDSKDKESGANPDQVTIRGGRKGVAAVKAELLEAAAFETESRQEATFKVPSKAVAQIVGKGGATINAIKNDTGAQIDIEREGGEDKQTTITVRGDKQAIAAAKEAVLNVVKEVGDEITVELTIEQKYHRNLIGQGGQNLRDLIASAGGPSEGYKQAGLVTFPKNGDESTDKVRLRGDSKVVKKIQTELEKQVAVLKDTIVIGVVVPATQHATKIGRGGMALQDLQRKTGAVIHFPGSRQYSSIGEIENQDDLEGVSEGDIVKVIGTKEVTQKAAELLQVTSERGQRSDSRQGRATPDLVSCPVSIPNKYYHAIAETPNLIRQIRAVGGYLNIPQPAPAKPSLKRPEPTSGDDLAAKTARIDLDGDETVPDVQGEWSLVKNFEGADDEKSEWVVRAKEEDLERAVKVLEQALEKARKATHVGYLTGLPRSAFPRIIGSKGATISRMRLETGADIQVGKEDDLITIIGDEESVLQAKDAILSIVSRPSRERY

What follows are binders tested against T1, Cdc3-mCherry (C. neoformans) (assay: affinity purification with mass spectrometry; mCherry-tagged septin captured from C. neoformans lysate on RFP-Trap agarose, 4 h at 4°C, washed with TBS with 2 M urea pH 7.5; GeLC-MS/MS; untagged H99 as negative control; hits logFC >2 and adjusted p <0.001 (text-named hits <0.05); exponential cultures at ~25°C or shifted to 37°C for 2 h; N = 5).

binding, binds:
B1
B2
B3
B4
B5
B6
